# In the supplement of paper PMC4604168 (melanoma cell lines):
# Some of the results follow. Repeats are few or missing, and single values can be far off.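 Imaging used 1,536-well plates; nuclei positive for cleaved PARP by antibody were divided by total DNA-stained nuclei to yield the apoptosis fraction. Doses for screening kept most cells viable, and cell lines differ markedly in resting and induced cleaved-PARP levels.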
# What was measured:
# Experiment in all cases: cleaved PARP positive nuclei fraction relative to DMSO control; melanoma cells; higher = more apoptosis
# Details in all cases: library dose: low library concentration; 72 h
# 501Mel = tested on: 501Mel
# A101D = tested on: A101D
# A2058 = tested on: A2058
# A375 = tested on: A375
# C32 = tested on: C32
# CBRC008 = tested on: CBRC008 (line from a melanoma biopsy)
# CBRC013 = tested on: CBRC013 (line from a melanoma biopsy)
# CBRC014 = tested on: CBRC014 (line from a melanoma biopsy)
# CBRC016 = tested on: CBRC016 (line from a melanoma biopsy)
# CBRC017 = tested on: CBRC017 (line from a melanoma biopsy)
# COLO792 = tested on: COLO792
# COLO800 = tested on: COLO800
# COLO829 = tested on: COLO829
# G361 = tested on: G361
# IPC-298 = tested on: IPC-298
# IST-MEL1 = tested on: IST-MEL1
# LB2518-MEL = tested on: LB2518-MEL
# LOXIMVI = tested on: LOXIMVI
# MEL-HO = tested on: MEL-HO
SMILES,cleaved PARP positive nuclei fraction (501Mel) [%],cleaved PARP positive nuclei fraction (A101D) [%],cleaved PARP positive nuclei fraction (A2058) [%],cleaved PARP positive nuclei fraction (A375) [%],cleaved PARP positive nuclei fraction (C32) [%],cleaved PARP positive nuclei fraction (CBRC008) [%],cleaved PARP positive nuclei fraction (CBRC013) [%],cleaved PARP positive nuclei fraction (CBRC014) [%],cleaved PARP positive nuclei fraction (CBRC016) [%],cleaved PARP positive nuclei fraction (CBRC017) [%],cleaved PARP positive nuclei fraction (COLO792) [%],cleaved PARP positive nuclei fraction (COLO800) [%],cleaved PARP positive nuclei fraction (COLO829) [%],cleaved PARP positive nuclei fraction (G361) [%],cleaved PARP positive nuclei fraction (IPC-298) [%],cleaved PARP positive nuclei fraction (IST-MEL1) [%],cleaved PARP positive nuclei fraction (LB2518-MEL) [%],cleaved PARP positive nuclei fraction (LOXIMVI) [%],cleaved PARP positive nuclei fraction (MEL-HO) [%]
"C#Cc1cccc(Nc2ncnc3cc(OCCOC)c(OCCOC)cc23)c1 [erlotinib] + CC1(C)NC(=O)N(c2ccc([N+](=O)[O-])c(C(F)(F)F)c2)C1=O [nilutamide] (first compound 0.8 µM, partner dose 1 µM)",111,86.9,90.9,57.6,63.4,87.7,98.4,96.1,27.3,104,94.6,50.9,57.8,35.2,94.6,45.7,85.7,27.7,91.7
"O=C(CCCCCCC(=O)Nc1ccccc1)NO [vorinostat] + CC(C)(C)c1cnc(CSc2cnc(NC(=O)C3CCNCC3)s2)o1 [SNS-032] (first compound 0.08 µM, partner dose 0.01 µM)",91.8,43.2,237,101,257,75.1,118,84.9,141,107,156,66.2,63.1,129,180,127,53.1,253,64.8
"CO[C@@H]1[C@H](N(C)C(=O)c2ccccc2)C[C@H]2O[C@]1(C)n1c3ccccc3c3c4c(c5c6ccccc6n2c5c31)C(=O)NC4 [Midostaurin] + NCC(=O)Nc1ccc(-n2nc(C(F)(F)F)cc2-c2ccc3c(ccc4ccccc43)c2)cc1 [OSU03012] (first compound 0.08 µM, partner dose 1 µM)",474,284,27.8,3190,76,181,175,101,227,117,425,41.2,76.4,147,52,251,94.9,68.6,73.3
"Cn1c(Nc2ccc(C(F)(F)F)cc2)nc2cc(Oc3ccnc(-c4ncc(C(F)(F)F)[nH]4)c3)ccc21 + CN(NC(=O)CC(=O)NN(C)C(=S)c1ccccc1)C(=S)c1ccccc1 [STA4783] (first compound 0.08 µM, partner dose 0.006 µM)",137,67.4,198,488,130,1360,80.7,303,266,167,216,164,104,184,173,175,82.6,106,94.2
"COCC[n+]1c2c(n(Cc3cnccn3)c1C)C(=O)c1ccccc1C2=O + Cc1cc(N2CCOCC2)cc2[nH]c(-c3c(NC[C@@H](O)c4cccc(Cl)c4)cc[nH]c3=O)nc12 [BMS536924] (first compound 0.0004 µM, partner dose 0.2 µM)",338,171,274,97.1,219,1460,162,92.4,65.7,104,157,306,72.7,166,234,88,247,62,137
"C=CCNC1=C2C[C@@H](C)C[C@H](OC)[C@H](O)[C@@H](C)/C=C(\C)[C@H](OC(N)=O)[C@@H](OC)/C=C\C=C(/C)C(=O)NC(=CC1=O)C2=O [Tanespimycin] + NCC(=O)Nc1ccc(-n2nc(C(F)(F)F)cc2-c2ccc3c(ccc4ccccc43)c2)cc1 [OSU03012] (first compound 0.002 µM, partner dose 1 µM)",338,149,106,1170,137,263,131,94.3,130,115,198,109,103,83.3,156,158,96.2,120,95.6
"O=C(CCCCCCC(=O)Nc1ccccc1)NO [vorinostat] + C[C@@H]1CCN(C(=O)CC#N)C[C@@H]1N(C)c1ncnc2[nH]ccc12 [CP690550] (first compound 0.08 µM, partner dose 1 µM)",84.5,78.7,67.8,208,79,109,87.5,81.1,99.9,104,128,104,57.1,136,184,239,157,60.2,274
"Nc1cccc2c1CN(C1CCC(=O)NC1=O)C2=O (stereo not drawn) [lenalidomide] + NC(=O)Nc1cc(-c2cccc(F)c2)sc1C(=O)N[C@H]1CCCNC1 [AZD7762] (first compound 1 µM, partner dose 0.02 µM)",67.3,44.7,57.9,83.8,222,93.4,93,103,138,89.6,98.6,95.3,96.7,96.8,43.6,732,14.9,44.3,145
"C=CCNC1=C2C[C@@H](C)C[C@H](OC)[C@H](O)[C@@H](C)/C=C(\C)[C@H](OC(N)=O)[C@@H](OC)/C=C\C=C(/C)C(=O)NC(=CC1=O)C2=O [Tanespimycin] + C[C@@H]1CCN(C(=O)CC#N)C[C@@H]1N(C)c1ncnc2[nH]ccc12 [CP690550] (first compound 0.002 µM, partner dose 1 µM)",33.5,181,73,156,272,391,118,104,140,105,65.5,93.8,94.8,66.9,141,77.1,51.4,31.8,301
"Cn1nnc2c(C(N)=O)ncn2c1=O [temozolomide] + Cn1cncc1[C@@](N)(c1ccc(Cl)cc1)c1ccc2c(c1)c(-c1cccc(Cl)c1)cc(=O)n2C [tipifarnib] (first compound 2 µM, partner dose 0.01 µM)",88.3,91.1,190,191,59.2,140,108,106,99.2,112,181,94.3,43.8,115,50.9,116,21.6,98.5,138
"CO[C@@H]1[C@H](N(C)C(=O)c2ccccc2)C[C@H]2O[C@]1(C)n1c3ccccc3c3c4c(c5c6ccccc6n2c5c31)C(=O)NC4 [Midostaurin] + C[C@@H]1CCN(C(=O)CC#N)C[C@@H]1N(C)c1ncnc2[nH]ccc12 [CP690550] (first compound 0.08 µM, partner dose 1 µM)",148,180,22,187,145,121,182,103,301,130,219,51.3,198,60.3,96.7,34.3,185,55.8,88.5
"COCC[n+]1c2c(n(Cc3cnccn3)c1C)C(=O)c1ccccc1C2=O + O=C(Nc1cccc(Cl)c1)Nc1ncc(CCNc2ncnc3ccsc23)s1 [SNS314] (first compound 0.0004 µM, partner dose 0.0008 µM)",83.3,20.3,181,126,60,1250,111,76.2,120,102,71,74.5,115,44.4,142,84.5,214,154,29.9
"OCc1c[nH]c2ccccc12 [Indole-3-carbinol] + CN(NC(=O)CC(=O)NN(C)C(=S)c1ccccc1)C(=S)c1ccccc1 [STA4783] (first compound 0.8 µM, partner dose 0.006 µM)",154,186,133,2630,101,3450,171,496,49.6,123,21.4,103,169,138,88.6,164,122,34.8,169
"COc1cc(Nc2ncc(F)c(Nc3ccc4c(n3)NC(=O)C(C)(C)O4)n2)cc(OC)c1OC [Tamatinib] + Cc1ccc(NC(=O)c2cccc(N(C)C)c2)cc1NC(=O)c1ccc(O)cc1 [ZM336372] (first compound 0.4 µM, partner dose 2 µM)",88.5,168,133,158,110,169,144,104,73.5,106,219,94.5,126,80.3,132,110,147,72.5,159
"OCc1c[nH]c2ccccc12 [Indole-3-carbinol] + COc1cc2c(Oc3ccc4[nH]c(C)cc4c3F)ncnc2cc1OCCCN1CCCC1 [cediranib] (first compound 0.8 µM, partner dose 0.4 µM)",104,297,73.7,141,76.3,98,115,95.8,121,78.9,87,85.7,104,133,97.8,48.2,55.6,122,132
"Cn1cncc1[C@@](N)(c1ccc(Cl)cc1)c1ccc2c(c1)c(-c1cccc(Cl)c1)cc(=O)n2C [tipifarnib] + CN(NC(=O)CC(=O)NN(C)C(=S)c1ccccc1)C(=S)c1ccccc1 [STA4783] (first compound 0.01 µM, partner dose 0.006 µM)",253,123,315,4270,233,1320,94.1,367,274,402,220,268,229,372,207,101,147,190,72
"Cn1c(Nc2ccc(C(F)(F)F)cc2)nc2cc(Oc3ccnc(-c4ncc(C(F)(F)F)[nH]4)c3)ccc21 + OCCn1cc(-c2cnc3nnn(Cc4ccc5ncccc5c4)c3n2)cn1 [PF04217903] (first compound 0.08 µM, partner dose 1 µM)",207,147,123,328,38.3,192,139,87.8,87.1,90.5,227,68,104,38.4,117,164,299,144,96

# Pulled one by one from the list above:
SMILES,cleaved PARP positive nuclei fraction (501Mel) [%],cleaved PARP positive nuclei fraction (A101D) [%],cleaved PARP positive nuclei fraction (A2058) [%],cleaved PARP positive nuclei fraction (A375) [%],cleaved PARP positive nuclei fraction (C32) [%],cleaved PARP positive nuclei fraction (CBRC008) [%],cleaved PARP positive nuclei fraction (CBRC013) [%],cleaved PARP positive nuclei fraction (CBRC014) [%],cleaved PARP positive nuclei fraction (CBRC016) [%],cleaved PARP positive nuclei fraction (CBRC017) [%],cleaved PARP positive nuclei fraction (COLO792) [%],cleaved PARP positive nuclei fraction (COLO800) [%],cleaved PARP positive nuclei fraction (COLO829) [%],cleaved PARP positive nuclei fraction (G361) [%],cleaved PARP positive nuclei fraction (IPC-298) [%],cleaved PARP positive nuclei fraction (IST-MEL1) [%],cleaved PARP positive nuclei fraction (LB2518-MEL) [%],cleaved PARP positive nuclei fraction (LOXIMVI) [%],cleaved PARP positive nuclei fraction (MEL-HO) [%]
"C=CCNC1=C2C[C@@H](C)C[C@H](OC)[C@H](O)[C@@H](C)/C=C(\C)[C@H](OC(N)=O)[C@@H](OC)/C=C\C=C(/C)C(=O)NC(=CC1=O)C2=O [Tanespimycin] + C[C@@H]1CCN(C(=O)CC#N)C[C@@H]1N(C)c1ncnc2[nH]ccc12 [CP690550] (first compound 0.002 µM, partner dose 1 µM)",33.5,181,73,156,272,391,118,104,140,105,65.5,93.8,94.8,66.9,141,77.1,51.4,31.8,301
"COc1cc(Nc2ncc(F)c(Nc3ccc4c(n3)NC(=O)C(C)(C)O4)n2)cc(OC)c1OC [Tamatinib] + Cc1ccc(NC(=O)c2cccc(N(C)C)c2)cc1NC(=O)c1ccc(O)cc1 [ZM336372] (first compound 0.4 µM, partner dose 2 µM)",88.5,168,133,158,110,169,144,104,73.5,106,219,94.5,126,80.3,132,110,147,72.5,159
